Measurements reported in PubChem BioAssay AID504744 (Drosophila RNAi Screening Center, 2011)
The deposit covers about 23,000 reagents; this is a random part of those with a known target gene and a result. In the full data, 98 (0.43%) are marked active. 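Only hit calls are given; the phospho-dAkt signals, z-scores and hit direction were not deposited.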 A plus sign joins genes that one reagent is predicted to hit.

Aim: 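Find genes whose loss alters insulin-driven dAkt phosphorylation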 (primary screen)
System: Drosophila Kc167 cells
Reagent: long dsRNA against Drosophila genes, 250 ng dsRNA per well of a 384-well plate
Timing: 3 days of knock-down, then overnight serum-free starvation before stimulation
Conditions: bovine insulin at 387 nM for 10 minutes after 12 h without serum
Measurement: 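In-cell antibody fluorescence for phospho-dAkt in each well over DNA-dye signal, with log2 residuals expressed as z-scores adjusted for cell count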
Hit rule: 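Hit in the insulin screen when the two-replicate mean z-score is more extreme than plus or minus 2.5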

| gene knocked down | DRSC id | Outcome |
| --- | --- | --- |
| CG15916 | DRSC19740 | inactive |
| mtg | DRSC16256 | inactive |
| CG1544 | DRSC15036 | inactive |
| Manf | DRSC14091 | inactive |
| bys | DRSC18748 | inactive |
| eIF3d1 | DRSC16938 | inactive |
| Prosbeta4R1 | DRSC00502 | inactive |
| Dro | DRSC07406 | inactive |
| dap | DRSC07601 | inactive |
| prage | DRSC17957 | inactive |
| prage | DRSC17958 | inactive |
| prage | DRSC18490 | inactive |
| prage | DRSC18497 | inactive |
| fs(1)h | DRSC18778 | inactive |
| CG14102 | DRSC10103 | inactive |
| gogo | DRSC10070 | inactive |
| gogo | DRSC10071 | inactive |
| NLaz | DRSC21521 | inactive |
| mRpS14 | DRSC19444 | inactive |
| CG30222 | DRSC04125 | inactive |
| CG30222 | DRSC04262 | inactive |
| phr | DRSC07662 | inactive |
| CG16984 | DRSC08500 | inactive |
| CG12680 | DRSC17871 | inactive |
| Traf4 | DRSC00445 | inactive |
| Traf4 | DRSC00794 | inactive |
| CG43333 | DRSC01917 | inactive |
| Cyp4c3 | DRSC16631 | inactive |
| Gr98c | DRSC22212 | inactive |
| CG15357 | DRSC00387 | inactive |
| CG8569 | DRSC07214 | inactive |
| Acsx4 | DRSC14311 | inactive |
| Sec71 | DRSC01893 | inactive |
| SCCRO4 | DRSC10671 | inactive |
| Tim17b2 | DRSC03457 | inactive |
| CG15376 (retired record) | DRSC18046 | inactive |
| Tsen54 | DRSC10527 | inactive |
| CG31200 | DRSC15285 | inactive |
| Klp31E | DRSC03354 | inactive |
| CG13082 | DRSC02186 | inactive |
| Cpr72Eb | DRSC09870 | inactive |
| Rx | DRSC03837 | inactive |
| Rx | DRSC04652 | inactive |
| CG14984 | DRSC08442 | inactive |
| CG1523 | DRSC15033 | inactive |
| snoRNA:Me28S-C3420b + RpS11 | DRSC07396 | inactive |
| CG30371 | DRSC06835 | inactive |
| CG3942 | DRSC15525 | inactive |
| mal | DRSC20581 | inactive |
| BBS4 | DRSC06352 | inactive |
| CG5003 | DRSC15694 | inactive |
| CG14448 | DRSC11705 | inactive |
| CG3701 (retired record) | DRSC04408 | inactive |
| CG3701 (retired record) | DRSC04409 | active |
| CG8319 | DRSC16407 | inactive |
| CNMaR | DRSC08992 | inactive |
| CNMaR | DRSC10224 | inactive |
| NUCB1 | DRSC22137 | inactive |
| atilla | DRSC02971 | inactive |
| CG17111 | DRSC15174 | inactive |
| CG12659 | DRSC17862 | inactive |
| CG31207 | DRSC21886 | inactive |
| CG34234 + Dh44-R2 | DRSC07278 | inactive |
| hoe2 | DRSC00459 | inactive |
| bru1 | DRSC01234 | inactive |
| bru1 | DRSC01236 | inactive |
| bru1 | DRSC01237 | inactive |
| bru1 | DRSC01238 | inactive |
| bru1 | DRSC03485 | inactive |
| CG5440 | DRSC00685 | inactive |
| ana3 | DRSC06289 | inactive |
| CG2246 | DRSC15433 | inactive |
| CG32487 | DRSC21745 | inactive |
| CG3792 | DRSC02725 | inactive |
| ppk27 | DRSC08168 | inactive |
| ppk27 | DRSC22211 | inactive |
| CG33768 | DRSC11715 | inactive |
| CG5326 | DRSC13568 | inactive |
| CG5326 | DRSC15770 | inactive |
| CG10252 | DRSC14221 | inactive |
| Cyt-c1L | DRSC14860 | inactive |
| Cyt-c1L | DRSC22096 | inactive |
| Syn2 | DRSC06902 | inactive |
| CG13962 | DRSC02304 | inactive |
| Ccp84Ad | DRSC12589 | inactive |
| Ccp84Ad | DRSC22854 | inactive |
| CG8860 | DRSC07291 | inactive |
| gry | DRSC08028 | inactive |
| gry | DRSC08518 | inactive |
| CG42565 | DRSC04154 | inactive |
| CG34232 | DRSC05332 | inactive |
| TTLL6B | DRSC15932 | inactive |
| CG5116 | DRSC15720 | inactive |
| Lfg | DRSC06853 | inactive |
| Nulp1 | DRSC09677 | inactive |
| cuff | DRSC06315 | inactive |
| bor | DRSC16915 | inactive |
| CG2059 | DRSC18203 | inactive |
| psd | DRSC03131 | inactive |
| CG17361 | DRSC10266 | inactive |
| CG5026 | DRSC10470 | inactive |
| CG33981 + fab1 | DRSC07412 | inactive |
| robo2 | DRSC00377 | inactive |
| robo2 | DRSC00378 | inactive |
| robo2 | DRSC00686 | inactive |
| robo2 | DRSC00691 | inactive |
| Gr89a | DRSC15023 | inactive |
| mst | DRSC20582 | inactive |
| Ptp36E | DRSC03021 | inactive |
| mRpL32 | DRSC14479 | inactive |
| CG34451 | DRSC09388 | inactive |
| CG34451 | DRSC09389 | inactive |
| CG6834 | DRSC16125 | inactive |
| CG4686 | DRSC15622 | inactive |
| CG6118 | DRSC15968 | inactive |
| CG7099 | DRSC03006 | inactive |
| CG34367 | DRSC02238 | inactive |
| CG34367 | DRSC02850 | inactive |
| Mlh1 | DRSC07473 | inactive |
| CG13931 | DRSC08400 | inactive |
| p38b | DRSC03586 | inactive |
| bnl | DRSC13377 | inactive |
| bnl | DRSC16913 | inactive |
| Sox15 | DRSC07555 | inactive |
| CG17026 | DRSC10237 | inactive |
| ND-B22 | DRSC03193 | inactive |
| CG5731 | DRSC02883 | inactive |
| CG3376 | DRSC04362 | inactive |
| Gr85a | DRSC12760 | inactive |
| Cog6 | DRSC06806 | inactive |
| TppII | DRSC07565 | inactive |
| Irc | DRSC16454 | inactive |
| rig | DRSC06053 | inactive |
| rig | DRSC06400 | inactive |
| CG33109 | DRSC16533 | inactive |
| CG2493 | DRSC02707 | inactive |
| Tie | DRSC08104 | inactive |
| Tie | DRSC08702 | inactive |
| Dsk | DRSC12347 | inactive |
| CG4520 | DRSC15590 | inactive |
| CG9109 | DRSC03139 | inactive |
| Cypl | DRSC08362 | inactive |
| CG13252 | DRSC11700 | inactive |
| CG16756 | DRSC18115 | inactive |
| Gr64b | DRSC08444 | inactive |
| CG10802 | DRSC17762 | inactive |
| CheB42b | DRSC22878 | inactive |
| wwk | DRSC01941 | inactive |
| RpL13A | DRSC12265 | inactive |
| dhd | DRSC18761 | inactive |
| ACXC | DRSC00846 | inactive |
| spz | DRSC17065 | inactive |
| hth | DRSC16967 | inactive |
| CG3609 | DRSC00620 | inactive |
| Optix | DRSC05078 | inactive |
| Optix | DRSC07484 | inactive |
| Optix | DRSC21963 | inactive |
| CG14491 | DRSC06462 | inactive |
| CG5721 | DRSC06945 | inactive |
| CG15080 | DRSC06511 | inactive |
| kappaB-Ras + CG30503 | DRSC06619 | inactive |
| kappaB-Ras + CG30503 | DRSC07636 | inactive |
| CG33107 | DRSC21898 | inactive |
| CG30058 + CG34235 + CG34312 | DRSC05401 | inactive |
| muskelin | DRSC07273 | inactive |
| CG30287 | DRSC03875 | inactive |
| Drak | DRSC19778 | inactive |
| CG17343 | DRSC02606 | inactive |
| CG17343 | DRSC22807 | inactive |
| inaF-B | DRSC18903 | inactive |
| CG3164 | DRSC00572 | inactive |
| CG12147 | DRSC12192 | inactive |
| Or22a | DRSC00764 | inactive |
| jeb | DRSC06305 | inactive |
| jeb | DRSC06307 | inactive |
| CG3124 | DRSC04339 | inactive |
| CG42713 | DRSC01050 | inactive |
| ProtA | DRSC03372 | inactive |
| CG15107 | DRSC06534 | inactive |
| Vps8 | DRSC09705 | inactive |
| CG30291 | DRSC03842 | inactive |
| lin-52 | DRSC18106 | inactive |
| CG2685 | DRSC18463 | inactive |
| Mitofilin | DRSC16742 | inactive |
| Rbp | DRSC15724 | inactive |
| Rbp | DRSC15726 | inactive |
| CG14659 | DRSC12245 | inactive |
| CG6067 | DRSC18399 | inactive |
| RabX2 | DRSC18234 | inactive |
| beg | DRSC10923 | inactive |
| Cirl | DRSC21942 | inactive |
| Mtr3 | DRSC10953 | inactive |
| Kaz | DRSC14637 | inactive |
| Twdlalpha | DRSC19914 | inactive |
| CG42394 + CG6567 | DRSC12821 | inactive |
| BNIP3 | DRSC11761 | inactive |
| Galphaq | DRSC07432 | inactive |
| Slc25A46b | DRSC02888 | inactive |
| vimar | DRSC05026 | inactive |
| CG15548 | DRSC15086 | inactive |

Called active, among the entries above:
| gene knocked down | DRSC id | Outcome |
| --- | --- | --- |
| CG3701 (retired record) | DRSC04409 | active |
